“Also recorded” adds a separate entry of the source. For part of these data: Part of at least one peptide drawing is inferred or uncertain, most often the ends. For part of these data: At least one compound was matched to its structure with a doubt left. Where a SMILES comes first, the peptide text is derived from it.
Legend:
mTORC1 = assay: Phosphorylated 4EBP1 in gastrocnemius muscle of 24 h fasted rats after oral gavage; format: in vivo, rat; details: leucine-equivalent dose
muscle protein synthesis = assay: Muscle protein synthetic rate in starved rats (flooding dose of radiolabeled phenylalanine); format: in vivo, rat; details: oral, 25% dose, 45 minutes, versus fasted vehicle control
Method: FIGS. 24A and 24B depict the effect of various amino acid combinations or a Leu-Arg-Lys tripeptide on phosphorylation of an mTORC1 substrate and the rate of muscle protein synthesis in starved rats.
To address this question, starved rats (n=8) were given oral doses of leucine, LR, LR(k), LC(k) and the LRK peptide and muscle protein synthetic rates were measured by administering a flooding dose of radiolabeled phenylalanine 10 minutes before sacrifice and quantifying uptake of radiolabeled phenylalanine.
Starved rats were dosed with amino acids benchmarked to either 5% of 25% of their daily intake of leucine. Rats were sacrificed 45 minutes after oral gavage and tissues and plasma was collected for mTORC1 signaling assessment, quantification of plasma leucine levels and measurement of protein synthetic rates.

RagA^GTP/GTP neonates = assay: Survival, glucose homeostasis and autophagy of fasted RagA^GTP/GTP neonates; format: in vivo, mouse

| Compound | potency of mTORC1 activation compared to LR(k) (mTORC1) | muscle protein synthesis (MPS) rate in gastrocnemius (muscle protein synthesis) | plasma amino acid levels of RagA^GTP/GTP neonates (RagA^GTP/GTP neonates; 10 h fasting) | cleavage of LC3B and degradation of p62 in livers of RagA^GTP/GTP neonates (RagA^GTP/GTP neonates; 10 hours of fasting) | blood glucose levels of fasted RagA^GTP/GTP neonates (RagA^GTP/GTP neonates; fasted for 6 and 10 h) | hepatic glycogen content of RagA^GTP/GTP neonates (RagA^GTP/GTP neonates; fasted for 10 h) |
| --- | --- | --- | --- | --- | --- | --- |
| CC(C)C[C@H](N)C(=O)N[C@@H](CCCNC(=N)N)C(=O)N[C@@H](CCCCN)C(=O)O [LRK peptide, Leu-Arg-Lys] (H-Leu-Arg-Lys-OH) | less potent than the mixture of LRK where lysine is dosed at a lower molar ratio than leucine and arginine | significantly increased muscle protein synthesis | – | – | – | – |
| CO[C@H]1C[C@@H]2CC[C@@H](C)[C@@](O)(O2)C(=O)C(=O)N2CCCC[C@H]2C(=O)O[C@H]([C@H](C)C[C@@H]2CC[C@@H](O)[C@H](OC)C2)CC(=O)[C@H](C)/C=C(\C)[C@@H](O)[C@@H](OC)C(=O)[C@H](C)C[C@H](C)/C=C/C=C/C=C/1C [rapamycin] | – | – | reversed the decrease in amino acids levels | increased | significantly increases glycaemia; also recorded: partially reversed their defect in blood glucose levels | partial rescue of hepatic glycogen content; also recorded: partially restored their hepatic glycogen |

— US20170027897A1, “mTORC1 MODULATION BY AMINO ACIDS AND USES THEREOF” (WHITEHEAD INSTITUTE FOR BIOMEDICAL RESEARCH, priority 2013, published 2017)
